Measurements from patent US20220401521A1.
Results are given in words; binding and its absence hold for the method and conditions named. Binding calls can cover weak binding; strength is not graded here.

Target: melanocortin receptor 2 (MC2R)
Experiment: calcium ion signal in CHO-K1 cells expressing MC2R, taken by the filing as a measure of binding

Row | Binder | binding
1 | SYSMEHFRWGKPVGKKRRPVKVYPNGAEDESAEAFPLEF [high-purity ACTH (human sequence SEQ ID NO: 3, 99.88%)] | binds
2 | SYSMEHFRWGKPVGKKRRPVKVYPNGAEDESAEAFPLEF [low-purity ACTH (human sequence SEQ ID NO: 3, 75.72%)] | binds
